Percent effect of library compounds

Source: ChEMBL document CHEMBL3988442, “University of Dundee, Small-Polar-MMV Screening Library” (2021).

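Whole-cell growth test on Mycobacterium tuberculosis, read after 3 days in glucose-containing 7H9 medium; the read-out is not stated. Concentration: 500 µM. Direction is inferred from retests: higher values go with more growth inhibition. Of about 18,000 compounds tested this way, about 1,400 (7.9%) reached 50% or more in at least one test.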

Results are given as percent effect.
How 0% and 100% were set is not recorded. Most values in the screen are low, and negative values occur.
This is an unselected part of the compounds tested.

structure	percent effect
CC(C)(C)OC(=O)N1CCN(C(CN)C(F)(F)F)CC1 (stereo not given)	30.47
Cc1ccc(F)c(OCC(=O)N[C@@H](C)C(N)=O)c1	-10.91
COc1cccc(C(O)c2nccn2C)c1 (stereo not given)	13.25
NCC1CCCN1CCc1ccccc1 (stereo not given)	3.556
CCNC(=O)NC(c1ccc2c(c1)OCCO2)C(C)C (stereo not given)	59.23
OCC(c1cccc(Cl)c1)N1CCNCC1 (stereo not given)	12.71
COC(=O)C1(N)CCSC1 (stereo not given)	6.005
CN(C)C(=O)c1cccnc1SC(F)F	13.37
CC(N)c1cccc(OCc2ccccn2)c1 (stereo not given)	39.59
CN(Cc1ccco1)C(=O)CN1CCCCC1	0.132
Cc1noc(C)c1C(=O)N1CCOc2ccccc21	23.46
Cc1cc(-n2cccn2)ccc1CO	1.792
CNC(=O)C(C)(C)C	5.69
COCC(C)NC(=O)c1ccc2c(c1)CCC(=O)N2 (stereo not given)	9.036
CNC(=O)c1cccc(NCc2ccc(C#N)s2)n1	68.75
OCCNc1nc2ccccc2s1	3.015
O=C1CN(C(=O)CCOc2ccc(Cl)cc2)CCN1	13.19
CC(C)COc1ccc(C(=O)N(C)CC(N)=O)cn1	3.122
COC(=O)c1ccc(OC)c(S(=O)(=O)NC2CC2)c1	24
CC(O)CN1CCC(CN(C)Cc2nccn2C)CC1 (stereo not given)	-3.503
O=C(Cc1ccccn1)N1CCCNCC1	1.402
CS(=O)(=O)CCN1C[C@H](c2ccccc2)[C@@H](N)C1	2.367
CCO[C@H]1CN(c2ccc(C(N)=O)cn2)C[C@@H]1O	6.043
CCNCc1cccc(NC(=O)C(C)COC)c1 (stereo not given)	45.85
NC1CCCN(S(=O)(=O)c2ccc(Br)cc2)C1 (stereo not given)	42.12
CCOc1ccc(NC(=O)[C@H](C)N(C)C)cc1	28.99
NC[C@@H]1CC(=O)N(C2CC2)[C@H]1c1cccnc1	7.723
Cc1cc(NC(=O)Cn2cc(Br)ccc2=O)no1	-6.323
CCCNc1cc(-n2cccn2)ncn1	72.31
CN(Cc1ccc(Cl)s1)C(=O)CSCCN	-0.01889
CS(=O)(=O)CCn1c(CCCO)nc2ccccc21	44.52
CCO[C@H]1CN(C(=O)CCn2ccnc2C)C[C@@H]1O	2.576
O=c1cc(CSCCO)c2ccccc2[nH]1	-6.629
CSC(C)C(=O)N(CCC(N)=O)Cc1ccccc1 (stereo not given)	17.23
NC(=O)C1COCCN1C(=O)c1cccc2c1CCC2 (stereo not given)	27.49
NCC1CCc2ccccc21 (stereo not given)	40.67
COc1cc(CN2CCCC2CO)cc2c1OCO2 (stereo not given)	10.16
O=C(NCc1ccoc1)C12CCCN1CCC2	12.95
O=C1CCN(c2nc3ccccc3o2)CC1	21.92
CN(CC(=O)Nc1sccc1C(N)=O)Cc1ccco1	48.12
COCCNC(=O)c1cccc(NC(=O)C(C)(C)C)c1	17.52
COCCCN1CCN(Cc2ccc(Cl)cn2)CC1	-14.16
O=C(NC1CCC(O)CC1)N1CCN(CC2CC2)CC1 (stereo not given)	6.653
C=C(C)CNC(C(=O)N1CCOCC1)C(C)C (stereo not given)	3.189
CC(C)NC(=O)NC(C)Cc1ccc(O)cc1 (stereo not given)	-1.934
NC(=O)C1(NC(=O)Nc2cccc(Br)c2)CC1	19.03
NCc1ccc2c(c1)CCC2	25.96
COc1cc2c(cc1OC)CN(C(=O)CCN)CC2	14.11
Cn1cc(Cl)c(C(=O)N[C@H]2C[C@@H]3OCC[C@H]23)n1	2.849
COCC1CCN(Cc2ccc3c(c2)OCO3)C1 (stereo not given)	6.628
NCC(=O)N1CCC(Cc2ccccc2)CC1	11.22
O=C(NCCc1cccs1)c1cc[nH]n1	21.17
CN(Cc1nnc[nH]1)C(=O)CCSc1ccccc1Cl	1.236
CC(CO)SCc1nnc(C(C)C)o1 (stereo not given)	-1.055
CCCc1ccc(C(=O)N[C@@H]2CCOC[C@H]2O)cc1	15.69
Cc1nc(CNc2ccn(-c3ncccc3Cl)n2)no1	-8.727
CN(Cc1nc(-c2cccs2)no1)C(=O)C(C)(C)C	-1.201
OCCC1(NCc2ccc(O)c(Cl)c2)CCOCC1	13
CC(C)(C)c1n[nH]cc1CNCC(=O)N1CCCC1	7.452
O=C(c1ccc(Br)o1)N1CCN(Cc2ccco2)CC1	91.71
Cc1nnc(SCCCNC(=O)CC2CCCN2C)s1 (stereo not given)	10.31
COCC(=O)N[C@H]1CN(CCS(C)(=O)=O)C[C@@H]1C(C)C	-4.687
CCN1CCCC1CNS(=O)(=O)c1cn(C(C)C)cn1 (stereo not given)	6.725
CN1CCCN(CC(=O)NCCc2ncnn2C)CC1	-12.84
N#CC1COCCN1C(=O)c1ccc(SC(F)F)cc1 (stereo not given)	30.88
CCOC(=O)Nc1ccc(S(=O)(=O)NC2CC2)cc1	-3.833
COC1CCN(CC(=O)N2CCCCC2C)CC1 (stereo not given)	-10.9
CN1C(=O)Cc2cc(Cl)ccc2C1=O	-6.091
CCN(Cc1cc2cc(C)ccc2nc1O)C(C)=O	40.82
CC(=O)NCCNC(=O)CN(CC1CCOC1)C1CC1 (stereo not given)	-2.606
COCC(C)NC(=O)c1cccc(NS(C)(=O)=O)c1 (stereo not given)	1.675
CNC(=O)c1cccnc1N1CCSCC1	12.96
CN(CC1COCCO1)C(=O)c1ccc2[nH]nnc2c1 (stereo not given)	-19.34
CCS(=O)(=O)N1CC(F)(F)C[C@H]1c1nc(C)no1	7.38
Cc1nn(CCO)c(C)c1CNCCNS(C)(=O)=O	-3.684
CN(C)C(=O)N1CCN(C(=O)C2CCCNC2)CC1 (stereo not given)	8.842
CCOc1ccc(NC(=O)c2ncoc2C)cc1CO	14.6
O=C(CN(CC(=O)NC1CC1)C1CCCC1)NC1CC1	11.58
COc1cc2c(nn1)CCNC2	-54.43
NC(=O)c1cccnc1SC1CCCC1	32.98
CC(=O)N1CCC(OCCOc2ccccc2)CC1	46.24
NC1CCC(F)(F)CC1	0.189
CS(=O)(=O)CC1(CNCc2cccc(O)c2)CC1	13.98
CN(CC(N)=O)CC1CCCCC1	-4.363
Cc1nc(-c2ccccn2)sc1C(=O)NC(C)C	-4.178
CNC(=O)CCc1ccc2c(c1)OCCCO2	5.806
CN(C)c1ncc2c(n1)CCCC2N (stereo not given)	-366.4
Cc1nc(C)c(CNC(=O)c2ccnnc2)s1	8.372
CC(C)CCC(=O)N1CCN(CC(O)C(F)(F)F)CC1 (stereo not given)	42.66
Cc1n[nH]c(SCC(=O)N[C@@H]2CCNC[C@H]2O)n1	3.035
CN(CC(=O)NCCC#N)Cc1ccc2c(c1)OCO2	14.81

The first 7 entries again:

* CC(C)(C)OC(=O)N1CCN(C(CN)C(F)(F)F)CC1 (stereo not given) : 30.47%
* Cc1ccc(F)c(OCC(=O)N[C@@H](C)C(N)=O)c1 : -10.91%
* COc1cccc(C(O)c2nccn2C)c1 (stereo not given) : 13.25%
* NCC1CCCN1CCc1ccccc1 (stereo not given) : 3.556%
* CCNC(=O)NC(c1ccc2c(c1)OCCO2)C(C)C (stereo not given) : 59.23%
* OCC(c1cccc(Cl)c1)N1CCNCC1 (stereo not given) : 12.71%
* COC(=O)C1(N)CCSC1 (stereo not given) : 6.005%